In the supplement of paper PMC8166895:
Several values for one entry are separate records, joined by “and”; a condition that tells them apart may be missing. Identical values can stand only once. Counter-ions that a name gives are not always drawn. The list shows a part of the results. Most entries show no effect beyond the scatter of the controls.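 Differential scanning fluorimetry gave melting temperatures in a one-replicate pilot screen of a library of approved drugs plus clinical or known-target compounds. Hits increasing melting point at least 2 °C were the strongest stabilizers, while negative shifts signify destabilization.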

system: SARS-CoV-2 main protease (Mpro, nsp5); test: thermal shift ΔTm of Mpro relative to plate average Tm; higher = stronger thermal stabilization of Mpro (binding); settings: 10 µM; protein concentration 1 µM

| Compound | thermal shift ΔTm of Mpro |
| --- | --- |
| CN1CCN(Cc2ccc(Nc3ncc(Cl)c(Nc4ccccc4S(=O)(=O)N(C)C)n3)cc2)CC1 | -0.0207 °C |
| COC(=O)c1ccc2c(c1)nc(NC(=O)c1ccccc1)n2CCCc1ccccc1 | -0.48 °C |
| O=S(=O)(F)Cc1ccccc1 | 0.0762 °C |
| c1ccc(NCc2ccc(CNc3ccccn3)cc2)nc1 | -0.0273 °C |
| O=C([O-])c1ccccc1[O-].[Bi+3].[OH-] [Bismuth subsalicylat] | 0.109 °C |
| Cc1nnc(C(=O)NC(C)(C)c2nc(C(=O)NCc3ccc(F)cc3)c(O)c(=O)n2C)o1 [Raltegravir (MK-0518)] | 0.194 °C |
| C[C@@H]1C[C@H]2[C@@H]3C[C@H](F)C4=CC(=O)C=C[C@]4(C)[C@@]3(F)[C@@H](O)C[C@]2(C)[C@@]1(O)C(=O)CO [Flumethasone] | 0.0765 °C |
| O=C(NC[C@H]1CN(c2ccc(N3CCOCC3=O)cc2)C(=O)O1)c1ccc(Cl)s1 [Rivaroxaban] | -0.0798 °C |
| O=C(O)Cc1ccc(-c2ccccc2)cc1 [4-Biphenylacetic acid] | -0.0857 °C |
| COc1cc(N2CCC(N3CCN(C)CC3)CC2)ccc1Nc1ncc(Cl)c(-c2c[nH]c3ccccc23)n1 | 0.298 °C |
| Cc1cc2c(cc1CC(=O)c1sccc1S(=O)(=O)Nc1onc(C)c1Cl)OCO2 [Sitaxentan sodium] | 0.518 °C |
| O=C(O)c1cn(-c2ccc(F)cc2)c2cc(N3CCNCC3)c(F)cc2c1=O [Sarafloxacin hydrochloride] | 0.0204 °C |
| C[N+]1(C)CCC(OC(=O)C(O)(c2ccccc2)C2CCCC2)C1 (centres undefined) [Glycopyrrolate] | 0.158 °C |
| O=C(O)c1ccc(S(=O)(=O)NC2CCCCC2)cc1 | 0.00265 °C |
| N[C@@H](CCC(=O)O)C(=O)[O-].[Na+] [L-Glutamic acid monosodium salt] | 0.311 °C |
| O=C(Nc1cccc(Cl)c1)c1ccccn1 | 0.00192 °C |
| CN(C)C(=O)Nc1cccc(-c2ccc(N(C)C)cc2)c1 [Atglistatin] | -0.314 °C |
| Clc1ccc(CCC(Cn2ccnc2)Sc2c(Cl)cccc2Cl)cc1 (centres undefined) [Butoconazole nitrate] | -0.285 °C |
| C[C@@]1(C(=O)Nc2ccc(F)nc2)CCCN1c1nc(Nc2cc(C3CC3)n[nH]2)c2cccn2n1 | -0.111 °C |
| N#Cc1ccc(C(c2ccc(C#N)cc2)n2cncn2)cc1 [Letrozole] | 0.142 °C |
| C=CC(=O)N1CCC(CNc2ncnc(N)c2-c2ccc(Oc3ccccc3)cc2)CC1 [evobrutinib] | -0.066 °C |

| Compound | thermal shift ΔTm of Mpro |
| --- | --- |
| Cn1c(=O)c2c(ncn2CC(=O)Nc2ccc(-c3ccccc3)nn2)n(C)c1=O | -0.0357 °C |
| N=C(NCCCCCCNC(=N)NC(=N)Nc1ccc(Cl)cc1)NC(=N)Nc1ccc(Cl)cc1 [Chlorhexidine HCl] | 0.151 °C |
| N=C(NCCCCCCNC(=N)NC(=N)Nc1ccc(Cl)cc1)NC(=N)Nc1ccc(Cl)cc1 [Chlorhexidine] | 0.0416 °C |
| CN1CCN(C2=Nc3ccccc3Oc3ccc(Cl)cc32)CC1 [Loxapine Succinate] | -0.19 °C |
| CC(C)CC(N)=O [Isovaleramide] | -0.126 °C |
| Cc1cc2sc(NC(=O)Cc3ccccc3)nc2cc1Cl | 0.0825 °C |
| COc1ccc(-c2cccc(C(=O)N(C)C)c2)cc1S(=O)(=O)Nc1cccc(NCCNC(=O)c2cccc(C)c2)c1 [Orexin 2 Receptor Agonist] | 0.0075 °C |
| CCOC(=O)[C@@H](N)Cc1ccc(-c2cc(O[C@H](c3ccc(Cl)cc3-n3ccc(C)n3)C(F)(F)F)nc(N)n2)cc1 [Telotristat Etiprate (LX 1606 Hippurate)] | -0.291 °C |
| CC(C)c1ccc(C(=O)N=C(N)N)cc1S(C)(=O)=O [Cariporide] | -0.0319 °C |
| NC(=O)c1ccc(N(C(N)=O)c2c(F)cccc2F)nc1-c1ccc(F)cc1F | -0.142 °C |
| CC(=O)Oc1ccccc1C(=O)Nc1ncc([N+](=O)[O-])s1 [Nitazoxanide] | 0.101 °C |
| CSc1nc(Nc2ccccc2)c2cccnc2n1 | -0.00237 °C |
| CCCCOCCOCCOCc1cc2c(cc1CCC)OCO2 [Piperonyl butoxide] | 0.0343 °C |
| CCCc1cc(C)[nH]c(=O)c1CNC(=O)c1cc(-c2ccc(N3CCN(C(C)C)CC3)nc2)cc2c1cnn2C(C)C | -0.176 °C |
| CCCCC(O)c1ccccc1 (centres undefined) [Fenipentol] | 0.138 °C |
| CCOC(=O)c1cc(C#N)c(N2CCC(C(=O)NS(=O)(=O)Cc3ccccc3)CC2)nc1C | -0.0695 °C |
| O=C(O)c1cn(C2CC2)c2cc(N3CCC(O)(COc4ccc(N5C[C@H](CO)OC5=O)cc4F)CC3)c(F)cc2c1=O [Cadazolid] | -0.0744 °C |
| COc1cc(N2CCOCC2)ccc1Nc1ncc(Cl)c(Nc2ccccc2NS(C)(=O)=O)n1 | -0.0372 °C |
| COc1ccc([C@@H]2CC(=O)c3c(O)cc(O)cc3O2)cc1O [Hesperetin] | -0.25 °C |
| CC(C)(C)C(=O)Nc1ccc2c(c1)C(=O)C(=O)c1ccccc1-2 | -0.0951 °C |
| Nc1c(CC(=O)O)cccc1C(=O)c1ccccc1 [Amfenac Sodium Monohydrate] | -0.018 °C |

| Compound | thermal shift ΔTm of Mpro |
| --- | --- |
| COc1cccc(C=Nc2cccc(C(=O)O)c2C)c1O | 0.024 °C |
| CC(C)C[C@H](NP(=O)(O)O[C@@H]1O[C@@H](C)[C@H](O)[C@@H](O)[C@H]1O)C(=O)N[C@@H](Cc1c[nH]c2ccccc12)C(=O)O [Phosphoramidon Disodium Salt] | -0.0643 °C |
| COc1ccc(-c2ccc3c(N4CCOC[C@@H]4C)nc(N4CCOC[C@@H]4C)nc3n2)cc1CO | -0.213 °C |
| O=C(Nc1ccc(Cl)cc1)Nc1ccc(Cl)c(Cl)c1 [Triclocarban] | 0.467 °C |
| CN[C@@H](C)C(=O)N[C@H](C(=O)N1CCC[C@H]1c1nc(C(=O)c2ccc(F)cc2)cs1)C1CCCCC1 | -0.0848 °C |
| O=C1c2c(O)cccc2Cc2cccc(O)c21 [Anthralin] | 0.0578 °C |
| Cc1c(C(=O)Nc2ccc(Oc3ccnc4[nH]cc(-c5ccccc5)c34)c(F)c2)c(=O)n(-c2ccc(F)cc2)n1C | 0.217 °C |
| COc1nccc(-c2c(-c3ccc(F)cc3)ncn2C2CCC(O)CC2)n1 (centres undefined) | -0.0675 °C |
| COc1c(C)c(C(=O)c2ccc(N)c(C(=O)O)c2)n2ccccc12 | -0.106 °C |
| NCCc1c[nH]cn1 [Histamine 2HCl] | -0.0472 °C |
| OC[C@H](Cc1ccccc1)Nc1nc(Oc2ccc3c(c2)CCC3)nc2c1ncn2Cc1ccc(-c2ccccc2)cc1 | 0.00658 °C |
| Cc1ccc(-c2csc3ncnc(SCCC(=O)O)c23)cc1 | -0.0342 °C |
| OC(Cn1cncn1)(Cn1cncn1)c1ccc(F)cc1F [Fluconazole] | 0.297 °C |
| Nc1[nH]cnc2ncnc1-2 [Adenine HCl] | 0.169 °C |
| N=C1CCCN1Cc1[nH]c(=O)[nH]c(=O)c1Cl [Tipiracil hydrochloride] | -0.0424 °C |
| C[C@@H](NCCCc1cccc(C(F)(F)F)c1)c1cccc2ccccc12 [Cinacalcet HCl] | 0.177 °C |
| CC(=O)Nc1cccc(-n2c(=O)n(C3CC3)c(=O)c3c(Nc4ccc(I)cc4F)n(C)c(=O)c(C)c32)c1 | -0.317 °C |
| C[C@@H]1Cc2c([nH]c3ccccc23)[C@@H](c2c(F)cc(/C=C/C(=O)O)cc2F)N1CC(C)(C)F | -0.123 °C |
| OCCN1CCN(CC/C=C2/c3ccccc3Sc3ccc(C(F)(F)F)cc32)CC1 [Flupenthixol dihydrochloride] | -0.0233 °C |
| COc1cc2ncnc(Sc3nnc(C)s3)c2cc1OC | -0.153 °C |
| O=C(NC[C@H](O)CN1CCc2ccccc2C1)c1cc(NC2COC2)ncn1 | 0.00526 °C |

| Compound | thermal shift ΔTm of Mpro |
| --- | --- |
| NC(=O)CN1CCCC1=O [Piracetam] | -0.0187 °C |
| Cc1cc(-c2ccccc2)cc(C(=O)NNS(=O)(=O)c2ccccc2)c1F | -0.186 °C |
| O=C1NC(=O)C(c2cnc3ccccn23)=C1c1cn2c3c(cc(F)cc13)CN(C(=O)N1CCCCC1)CC2 | -0.102 °C |
| Cc1cn[nH]c1 [4-Methylpyrazole] | 0.0209 °C |
| Cc1ccc(S(=O)(=O)c2ccc([N+](=O)[O-])o2)cc1 | -0.319 °C |
| FC(F)(F)C(Cl)Br (centres undefined) [Anestan] | 0.00529 °C |
| COC(=O)Nc1nc2cc(C(=O)c3cccs3)ccc2[nH]1 [Nocodazole] | -0.113 °C |
| Cc1ccc(C(=O)c2ccc(CC(=O)O)n2C)cc1 [Tolmetin] | -0.116 °C |
| COc1cc(Br)c(Nc2nc(-c3c(C)nc4ncccn34)cs2)c(Br)c1 | -0.14 °C and 0.0997 °C |
| CC(=O)OCC(=O)[C@@]1(O)CC[C@H]2[C@@H]3CCC4=CC(=O)CC[C@]4(C)[C@@]3(F)[C@@H](O)C[C@@]21C [Fludrocortisone acetate] | 0.169 °C |
| CC(C)c1cc(/C=C(\C#N)C(=O)NCCCc2ccccc2)cc(C(C)C)c1O | -0.16 °C |
| CN1C(=O)c2sccc2N(C)c2nc(Nc3ccc(S(N)(=O)=O)cc3)ncc21 | -0.243 °C |
| NS(=O)(=O)c1cc(C2(O)NC(=O)c3ccccc32)ccc1Cl (centres undefined) [Chlortalidone] | 0.112 °C |
| CC(C)(C)c1cnc(CSc2cnc(NC(=O)C3CCNCC3)s2)o1 | -0.0868 °C |
| CCCCCCCCCCCCCCCC(=O)OC/C=C(C)/C=C/C=C(C)/C=C/C1=C(C)CCCC1(C)C [Retinol palmitate] | 0.162 °C |
| CC(C)c1c(C(=O)Nc2ccccc2)c(-c2ccccc2)c(-c2ccc(F)cc2)n1CC[C@@H](O)C[C@@H](O)CC(=O)O [Atorvastatin Calcium] | 0.0335 °C |
| CC(=O)OCC(=O)[C@@]1(O)CC[C@H]2[C@@H]3CCC4=CC(=O)CC[C@]4(C)[C@H]3[C@@H](O)C[C@@]21C [Hydrocortisone acetate] | -0.0178 °C |
| CCN[C@H]1CN(CCCOC)S(=O)(=O)c2sc(S(N)(=O)=O)cc21 [Brinzolamide] | 0.432 °C |
| CC(C)Oc1ccc(-c2c[nH]cc2CN(C)CCN)cc1 | -0.0807 °C |
| CNS(=O)(=O)c1ccccc1Nc1nc(Nc2ccc(N3CCN(C)CC3)cc2OC)ncc1Cl [ALK inhibitor 2] | 0.095 °C |
| O=S(=O)(c1ccc2c(c1)C(=NO)c1cc(S(=O)(=O)N3CCCCC3)ccc1-2)N1CCCCC1 | -0.159 °C |
